Measurements reported in PubChem BioAssay AID493246 (Drosophila RNAi Screening Center, 2011).
The deposit covers about 21,000 reagents; this is an unselected part of those with a known target gene and a result. Of all reagents, 429 (2%) got an active call. 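Values are raw and not normalised between plates; calls rest on per-plate z-scores that were not deposited.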 A plus sign joins genes that one reagent is predicted to hit. Not stated in the record: the amount of reagent, the time to read-out.

- Aim: 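Identify essential fly genes by loss of cell viability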 (primary screen)
- Cell system: Drosophila Kc and S2R+ cells
- Reagents: long dsRNA against Drosophila genes
- Detection: 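Raw, unnormalised count of remaining cells in each well; per-plate z-scores of cell number underlie the calls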
- Scale: Kc cell number and S2R+ cell number: higher = more cells remaining
- Rule for the call: 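Active when the per-plate z-score of cell number is 3 or more in the direction of fewer cells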

target gene,DRSC id,"Kc cell number, rep 1","Kc cell number, rep 2","S2R+ cell number, rep 1","S2R+ cell number, rep 2",outcome
CG15480,DRSC02490,1.69e6,1.66e6,1.37e6,1.51e6,inactive
CG17658,DRSC04292,1.62e6,1.72e6,1.38e6,1.52e6,inactive
hpo (hippo),DRSC06065,1.37e6,1.40e6,1.19e6,1.14e6,inactive
CG3176 + CR18166 + CG32817,DRSC17271,1.14e6,1.28e6,1.05e6,1.11e6,inactive
CG3176 + CR18166 + CG32817,DRSC17282,1.12e6,1.23e6,1.08e6,1.08e6,inactive
CG3176 + CR18166 + CG32817,DRSC18288,5.42e5,,8.60e5,,inactive
armi (armitage),DRSC08193,1.58e6,1.37e6,1.03e6,1.20e6,inactive
CG8929,DRSC07298,1.40e6,1.45e6,1.20e6,1.21e6,inactive
CG6733,DRSC16103,1.56e6,1.68e6,1.05e6,1.10e6,inactive
CG11275,DRSC04095,1.75e6,1.97e6,1.51e6,3.69e5,inactive
LBR (Lamin B receptor),DRSC04298,1.18e6,1.18e6,1.06e6,9.54e5,inactive
CG30195,DRSC04155,1.56e6,1.62e6,1.20e6,1.35e6,inactive
CG13581,DRSC04216,1.54e6,1.58e6,1.23e6,1.44e6,inactive
CG32277,DRSC08196,1.55e6,1.23e6,9.75e5,1.29e6,inactive
her (hermaphrodite),DRSC03543,1.35e6,1.43e6,1.34e6,1.39e6,inactive
CG31676,DRSC02387,1.57e6,1.64e6,1.24e6,4.05e5,inactive
LPCAT (Lysophosphatidylcholine acyltransferase),DRSC18157,1.75e6,1.79e6,1.07e6,1.30e6,inactive
LPCAT (Lysophosphatidylcholine acyltransferase),DRSC18257,1.74e6,1.58e6,1.06e6,1.13e6,inactive
"Arpc1 (Actin-related protein 2/3 complex, subunit 1)",DRSC03438,1.21e6,1.29e6,1.14e6,1.20e6,inactive
CG7991,DRSC08609,1.23e6,1.28e6,1.01e6,1.19e6,inactive
CG33914,DRSC05033,1.39e6,1.53e6,9.68e5,1.13e6,inactive
trp (transient receptor potential),DRSC17088,1.38e6,1.42e6,1.05e6,1.10e6,inactive
svr (silver),DRSC17293,1.11e6,1.27e6,1.06e6,1.08e6,inactive
svr (silver),DRSC18841,1.62e6,1.58e6,1.02e6,1.10e6,inactive
CG42337,DRSC11686,1.44e6,1.42e6,1.32e6,1.37e6,inactive
CG42337,DRSC11687,1.13e6,1.07e6,7.56e5,8.37e5,active
Tektin-A (Tektin A),DRSC01921,1.30e6,1.34e6,1.25e6,1.30e6,inactive
Gdh (Glutamate dehydrogenase),DRSC16679,1.44e6,1.47e6,8.51e5,9.38e5,inactive
CG33285,DRSC11463,1.41e6,1.49e6,1.08e6,1.23e6,inactive
CG32547,DRSC19263,1.63e6,1.91e6,1.16e6,1.26e6,inactive
CG32547,DRSC19265,1.59e6,1.91e6,1.14e6,1.35e6,inactive
CG32547,DRSC19474,1.58e6,1.57e6,1.18e6,1.36e6,inactive
CG32547,DRSC19626,1.55e6,1.61e6,9.99e5,1.12e6,inactive
CG10939,DRSC06019,1.20e6,1.34e6,8.69e5,8.63e5,inactive
CG1092,DRSC12151,1.52e6,1.56e6,1.31e6,1.38e6,inactive
CG12902,DRSC06217,1.48e6,1.56e6,1.30e6,1.37e6,inactive
CG8152,DRSC07083,1.62e6,1.67e6,1.41e6,1.52e6,inactive
BomT3 (Bomanin Tailed 3),DRSC13537,1.43e6,1.38e6,1.03e6,1.08e6,inactive
BomT3 (Bomanin Tailed 3),DRSC15871,1.48e6,1.43e6,1.11e6,1.23e6,inactive
ClC-a (Chloride channel-a),DRSC14947,1.72e6,1.78e6,1.20e6,1.34e6,inactive
ClC-a (Chloride channel-a),DRSC14948,1.60e6,1.73e6,1.34e6,1.35e6,inactive
ClC-a (Chloride channel-a),DRSC16142,1.45e6,1.55e6,1.15e6,1.17e6,inactive
Rab6,DRSC03404,1.34e6,1.39e6,1.13e6,1.20e6,inactive
AnxB9 (Annexin B9),DRSC14111,1.59e6,1.63e6,1.27e6,1.34e6,inactive
BicC (Bicaudal C),DRSC02005,1.57e6,1.60e6,1.35e6,1.57e6,inactive
heix (heixuedian),DRSC03542,1.16e6,1.17e6,1.16e6,1.13e6,inactive
CG30398,DRSC03891,4.80e5,,7.95e5,,inactive
CecA2 (Cecropin A2),DRSC16604,1.44e6,1.59e6,9.52e5,1.14e6,inactive
OdsH (Ods-site homeobox),DRSC20263,1.69e6,1.71e6,1.15e6,1.22e6,inactive
CG13033,DRSC09913,1.37e6,1.44e6,1.26e6,1.35e6,inactive
CG4956,DRSC15683,1.51e6,1.52e6,1.01e6,1.08e6,inactive
Mad,DRSC00759,1.55e6,1.51e6,1.13e6,1.31e6,inactive
CG34251,DRSC09498,1.43e6,1.56e6,1.11e6,1.25e6,inactive
CG34251,DRSC09500,1.65e6,1.78e6,1.16e6,1.38e6,inactive
Sdr (Secreted decoy of InR),DRSC15517,1.47e6,1.53e6,1.29e6,1.35e6,inactive
CG7714,DRSC16300,1.14e6,1.17e6,1.13e6,1.19e6,inactive
CG11929,DRSC00339,1.56e6,1.62e6,1.22e6,1.36e6,inactive
CG15705,DRSC06576,1.62e6,1.68e6,1.27e6,1.46e6,inactive
CG31482,DRSC12582,1.60e6,1.72e6,1.33e6,1.48e6,inactive
